Results reported in paper PMC11497069, “Novel Arf1 Inhibitors Drive Cancer Stem Cell Aging and Potentiate Anti‐Tumor Immunity” (Advanced Science, 2024).
No constants are given. Whether binding was seen depends on the method and setting. In cells and extracts the contact can be indirect. Some results given as binding are weak or reduced against the parent protein; the word gives no strength. Tags and fused reporters may be left off the sequences shown.

Protein sequences, listed by entry. Tags and fused reporters are not part of them.
UniProt P84077: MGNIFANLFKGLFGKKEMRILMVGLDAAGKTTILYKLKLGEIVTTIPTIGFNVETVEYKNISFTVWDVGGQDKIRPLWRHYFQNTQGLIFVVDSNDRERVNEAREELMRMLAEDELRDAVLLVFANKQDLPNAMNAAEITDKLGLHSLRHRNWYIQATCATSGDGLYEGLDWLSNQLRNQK

Biological target: T1, GGA3-FLAG (human) (UniProt Q9NZ52)
T1 sequence: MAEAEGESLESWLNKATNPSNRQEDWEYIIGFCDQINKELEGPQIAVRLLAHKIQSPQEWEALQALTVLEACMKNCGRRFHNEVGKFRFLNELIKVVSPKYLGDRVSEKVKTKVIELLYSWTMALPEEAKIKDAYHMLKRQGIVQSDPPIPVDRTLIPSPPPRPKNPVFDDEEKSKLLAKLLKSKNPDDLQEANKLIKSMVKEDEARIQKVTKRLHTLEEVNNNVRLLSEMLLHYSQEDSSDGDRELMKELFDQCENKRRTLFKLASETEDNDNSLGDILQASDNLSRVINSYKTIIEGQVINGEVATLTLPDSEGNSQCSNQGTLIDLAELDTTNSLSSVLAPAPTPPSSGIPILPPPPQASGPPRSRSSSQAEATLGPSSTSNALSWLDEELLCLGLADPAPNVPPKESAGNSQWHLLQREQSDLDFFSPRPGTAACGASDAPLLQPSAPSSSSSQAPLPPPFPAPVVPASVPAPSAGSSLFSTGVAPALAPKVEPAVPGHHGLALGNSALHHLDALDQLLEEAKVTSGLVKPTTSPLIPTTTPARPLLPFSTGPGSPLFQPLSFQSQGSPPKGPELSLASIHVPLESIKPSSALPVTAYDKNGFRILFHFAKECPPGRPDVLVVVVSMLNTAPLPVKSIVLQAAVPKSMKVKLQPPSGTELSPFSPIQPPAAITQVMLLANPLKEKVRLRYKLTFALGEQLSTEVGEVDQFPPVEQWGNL
Assay: co-IP; Huh7 cells transfected with p23-GGA3-FLAG and treated with DMSO, BFA, DU101 or DU102 (GCA also named in the methods) for 24 h; lysed in IP buffer (25 mM Tris-HCl pH 7.4, 150 mM NaCl, 1% NP-40, 1 mM EDTA, 5% glycerol); lysate incubated with EDTA, GTPγS and GDP at 30 °C for 15 min, stopped with MgCl2; Flag magnetic beads at 4 °C overnight; immunoblot with anti-Arf1; the paper calls it GGA3 pull-down

binding: binds
Substance: Arf1 (from UniProt P84077 1-181)
